Experimental findings from the supplement of paper PMC11732987, “Enantioselective OTUD7B fragment discovery through chemoproteomics screening and high-throughput optimisation” (Communications Chemistry, 2025) are described below.

Amino acid sequences for entries named in this document (tags omitted). A change or cut given only in a name is not applied to a line headed by its entry. Residues count along the entry.
UniProt P16591: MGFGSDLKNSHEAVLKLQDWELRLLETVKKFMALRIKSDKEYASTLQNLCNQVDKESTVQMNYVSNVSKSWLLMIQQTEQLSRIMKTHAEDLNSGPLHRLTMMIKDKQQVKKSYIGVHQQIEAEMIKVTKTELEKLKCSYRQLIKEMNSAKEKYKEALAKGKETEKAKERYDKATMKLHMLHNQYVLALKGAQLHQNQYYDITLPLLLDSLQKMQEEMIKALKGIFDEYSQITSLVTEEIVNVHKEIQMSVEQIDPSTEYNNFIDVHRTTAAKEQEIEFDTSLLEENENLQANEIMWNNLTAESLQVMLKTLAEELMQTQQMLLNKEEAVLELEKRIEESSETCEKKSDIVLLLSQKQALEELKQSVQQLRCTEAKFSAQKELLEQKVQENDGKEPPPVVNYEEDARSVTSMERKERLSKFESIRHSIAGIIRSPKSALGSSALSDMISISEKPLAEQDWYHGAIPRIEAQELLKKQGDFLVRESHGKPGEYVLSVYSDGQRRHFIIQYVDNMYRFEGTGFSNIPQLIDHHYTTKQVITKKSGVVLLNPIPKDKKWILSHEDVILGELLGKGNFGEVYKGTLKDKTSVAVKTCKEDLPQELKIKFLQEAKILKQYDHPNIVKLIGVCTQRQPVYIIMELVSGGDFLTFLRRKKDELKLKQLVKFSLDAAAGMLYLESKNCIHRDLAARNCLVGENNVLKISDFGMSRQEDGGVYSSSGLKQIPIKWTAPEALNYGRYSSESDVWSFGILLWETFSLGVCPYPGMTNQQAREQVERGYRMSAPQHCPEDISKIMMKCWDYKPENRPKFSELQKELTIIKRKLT
UniProt Q9Y613, 40-60: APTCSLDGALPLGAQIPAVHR
UniProt P51116, whole entry, looked up: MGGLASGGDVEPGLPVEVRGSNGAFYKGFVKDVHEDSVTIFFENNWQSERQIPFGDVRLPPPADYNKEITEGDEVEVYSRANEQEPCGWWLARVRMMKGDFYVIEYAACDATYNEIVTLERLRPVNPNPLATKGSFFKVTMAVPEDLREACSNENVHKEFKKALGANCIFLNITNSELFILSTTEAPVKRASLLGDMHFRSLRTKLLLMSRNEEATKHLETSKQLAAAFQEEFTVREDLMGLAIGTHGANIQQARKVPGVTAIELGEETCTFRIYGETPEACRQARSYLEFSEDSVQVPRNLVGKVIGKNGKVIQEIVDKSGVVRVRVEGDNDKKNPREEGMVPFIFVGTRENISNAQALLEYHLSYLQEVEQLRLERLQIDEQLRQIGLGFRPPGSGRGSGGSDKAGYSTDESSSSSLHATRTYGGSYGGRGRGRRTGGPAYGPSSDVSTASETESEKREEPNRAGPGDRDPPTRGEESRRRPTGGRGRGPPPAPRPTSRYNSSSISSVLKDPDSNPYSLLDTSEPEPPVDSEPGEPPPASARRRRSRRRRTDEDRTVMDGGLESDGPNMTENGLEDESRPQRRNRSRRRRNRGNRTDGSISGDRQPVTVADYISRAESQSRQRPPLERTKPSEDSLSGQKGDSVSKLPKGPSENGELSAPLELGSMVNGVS
UniProt Q06546: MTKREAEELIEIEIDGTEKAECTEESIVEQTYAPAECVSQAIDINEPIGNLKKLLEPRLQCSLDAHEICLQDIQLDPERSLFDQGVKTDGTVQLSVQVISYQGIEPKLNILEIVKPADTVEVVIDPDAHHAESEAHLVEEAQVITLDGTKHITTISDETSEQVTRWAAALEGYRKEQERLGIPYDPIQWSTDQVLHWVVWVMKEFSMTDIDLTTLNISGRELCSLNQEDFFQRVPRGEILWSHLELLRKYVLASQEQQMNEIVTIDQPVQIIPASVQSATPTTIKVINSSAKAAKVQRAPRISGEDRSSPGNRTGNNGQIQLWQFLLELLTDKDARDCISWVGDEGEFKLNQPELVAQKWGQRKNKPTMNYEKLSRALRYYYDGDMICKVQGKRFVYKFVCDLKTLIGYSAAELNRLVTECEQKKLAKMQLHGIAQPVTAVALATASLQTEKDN
UniProt Q5T1M5: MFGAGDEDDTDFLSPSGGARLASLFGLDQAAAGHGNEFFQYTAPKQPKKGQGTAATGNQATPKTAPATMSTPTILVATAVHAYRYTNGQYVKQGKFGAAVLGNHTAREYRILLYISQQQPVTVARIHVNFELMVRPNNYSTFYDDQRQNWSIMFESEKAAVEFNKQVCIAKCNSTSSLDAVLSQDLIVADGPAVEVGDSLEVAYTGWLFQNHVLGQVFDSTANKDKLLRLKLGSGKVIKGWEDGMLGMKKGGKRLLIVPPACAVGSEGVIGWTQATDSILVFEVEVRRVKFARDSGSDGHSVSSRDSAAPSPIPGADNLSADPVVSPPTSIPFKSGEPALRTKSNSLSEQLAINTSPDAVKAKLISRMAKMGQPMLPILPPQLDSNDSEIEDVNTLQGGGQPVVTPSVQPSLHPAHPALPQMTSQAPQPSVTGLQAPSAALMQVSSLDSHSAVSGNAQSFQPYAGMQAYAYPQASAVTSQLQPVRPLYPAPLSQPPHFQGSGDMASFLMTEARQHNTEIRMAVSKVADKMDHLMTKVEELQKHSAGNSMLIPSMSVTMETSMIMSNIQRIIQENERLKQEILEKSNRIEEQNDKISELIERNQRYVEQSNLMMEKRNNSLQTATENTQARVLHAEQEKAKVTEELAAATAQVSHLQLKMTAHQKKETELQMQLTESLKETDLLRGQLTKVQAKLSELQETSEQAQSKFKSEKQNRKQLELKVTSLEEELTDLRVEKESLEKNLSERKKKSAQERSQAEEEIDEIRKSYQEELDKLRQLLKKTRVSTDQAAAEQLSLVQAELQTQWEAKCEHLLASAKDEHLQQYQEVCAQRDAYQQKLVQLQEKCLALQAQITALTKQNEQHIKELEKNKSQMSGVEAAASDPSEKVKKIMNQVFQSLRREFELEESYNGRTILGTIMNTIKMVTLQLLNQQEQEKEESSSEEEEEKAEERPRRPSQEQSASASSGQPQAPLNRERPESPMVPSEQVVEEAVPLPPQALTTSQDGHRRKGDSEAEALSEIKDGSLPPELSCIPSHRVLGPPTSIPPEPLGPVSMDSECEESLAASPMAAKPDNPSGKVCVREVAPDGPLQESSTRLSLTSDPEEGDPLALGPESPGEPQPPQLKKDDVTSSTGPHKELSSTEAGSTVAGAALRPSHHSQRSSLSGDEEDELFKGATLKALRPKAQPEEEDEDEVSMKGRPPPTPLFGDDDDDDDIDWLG
UniProt Q14CZ7: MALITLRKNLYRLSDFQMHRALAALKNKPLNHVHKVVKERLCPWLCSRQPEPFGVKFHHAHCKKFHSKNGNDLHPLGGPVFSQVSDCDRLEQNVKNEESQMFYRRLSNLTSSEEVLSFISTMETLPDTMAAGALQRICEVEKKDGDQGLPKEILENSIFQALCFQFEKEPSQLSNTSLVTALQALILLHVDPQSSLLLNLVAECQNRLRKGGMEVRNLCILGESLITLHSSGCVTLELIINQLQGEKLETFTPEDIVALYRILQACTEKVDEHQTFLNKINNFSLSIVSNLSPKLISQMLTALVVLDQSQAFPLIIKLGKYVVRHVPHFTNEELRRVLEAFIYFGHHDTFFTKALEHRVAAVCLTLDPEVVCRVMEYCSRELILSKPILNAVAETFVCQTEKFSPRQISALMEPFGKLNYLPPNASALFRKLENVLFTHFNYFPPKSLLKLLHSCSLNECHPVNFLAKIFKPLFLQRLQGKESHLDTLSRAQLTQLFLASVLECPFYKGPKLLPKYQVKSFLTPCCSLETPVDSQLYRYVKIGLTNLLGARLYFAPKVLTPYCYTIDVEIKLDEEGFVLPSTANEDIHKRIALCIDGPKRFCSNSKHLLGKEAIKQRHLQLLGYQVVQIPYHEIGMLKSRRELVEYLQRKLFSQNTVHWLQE
UniProt Q14315, whole entry, looked up: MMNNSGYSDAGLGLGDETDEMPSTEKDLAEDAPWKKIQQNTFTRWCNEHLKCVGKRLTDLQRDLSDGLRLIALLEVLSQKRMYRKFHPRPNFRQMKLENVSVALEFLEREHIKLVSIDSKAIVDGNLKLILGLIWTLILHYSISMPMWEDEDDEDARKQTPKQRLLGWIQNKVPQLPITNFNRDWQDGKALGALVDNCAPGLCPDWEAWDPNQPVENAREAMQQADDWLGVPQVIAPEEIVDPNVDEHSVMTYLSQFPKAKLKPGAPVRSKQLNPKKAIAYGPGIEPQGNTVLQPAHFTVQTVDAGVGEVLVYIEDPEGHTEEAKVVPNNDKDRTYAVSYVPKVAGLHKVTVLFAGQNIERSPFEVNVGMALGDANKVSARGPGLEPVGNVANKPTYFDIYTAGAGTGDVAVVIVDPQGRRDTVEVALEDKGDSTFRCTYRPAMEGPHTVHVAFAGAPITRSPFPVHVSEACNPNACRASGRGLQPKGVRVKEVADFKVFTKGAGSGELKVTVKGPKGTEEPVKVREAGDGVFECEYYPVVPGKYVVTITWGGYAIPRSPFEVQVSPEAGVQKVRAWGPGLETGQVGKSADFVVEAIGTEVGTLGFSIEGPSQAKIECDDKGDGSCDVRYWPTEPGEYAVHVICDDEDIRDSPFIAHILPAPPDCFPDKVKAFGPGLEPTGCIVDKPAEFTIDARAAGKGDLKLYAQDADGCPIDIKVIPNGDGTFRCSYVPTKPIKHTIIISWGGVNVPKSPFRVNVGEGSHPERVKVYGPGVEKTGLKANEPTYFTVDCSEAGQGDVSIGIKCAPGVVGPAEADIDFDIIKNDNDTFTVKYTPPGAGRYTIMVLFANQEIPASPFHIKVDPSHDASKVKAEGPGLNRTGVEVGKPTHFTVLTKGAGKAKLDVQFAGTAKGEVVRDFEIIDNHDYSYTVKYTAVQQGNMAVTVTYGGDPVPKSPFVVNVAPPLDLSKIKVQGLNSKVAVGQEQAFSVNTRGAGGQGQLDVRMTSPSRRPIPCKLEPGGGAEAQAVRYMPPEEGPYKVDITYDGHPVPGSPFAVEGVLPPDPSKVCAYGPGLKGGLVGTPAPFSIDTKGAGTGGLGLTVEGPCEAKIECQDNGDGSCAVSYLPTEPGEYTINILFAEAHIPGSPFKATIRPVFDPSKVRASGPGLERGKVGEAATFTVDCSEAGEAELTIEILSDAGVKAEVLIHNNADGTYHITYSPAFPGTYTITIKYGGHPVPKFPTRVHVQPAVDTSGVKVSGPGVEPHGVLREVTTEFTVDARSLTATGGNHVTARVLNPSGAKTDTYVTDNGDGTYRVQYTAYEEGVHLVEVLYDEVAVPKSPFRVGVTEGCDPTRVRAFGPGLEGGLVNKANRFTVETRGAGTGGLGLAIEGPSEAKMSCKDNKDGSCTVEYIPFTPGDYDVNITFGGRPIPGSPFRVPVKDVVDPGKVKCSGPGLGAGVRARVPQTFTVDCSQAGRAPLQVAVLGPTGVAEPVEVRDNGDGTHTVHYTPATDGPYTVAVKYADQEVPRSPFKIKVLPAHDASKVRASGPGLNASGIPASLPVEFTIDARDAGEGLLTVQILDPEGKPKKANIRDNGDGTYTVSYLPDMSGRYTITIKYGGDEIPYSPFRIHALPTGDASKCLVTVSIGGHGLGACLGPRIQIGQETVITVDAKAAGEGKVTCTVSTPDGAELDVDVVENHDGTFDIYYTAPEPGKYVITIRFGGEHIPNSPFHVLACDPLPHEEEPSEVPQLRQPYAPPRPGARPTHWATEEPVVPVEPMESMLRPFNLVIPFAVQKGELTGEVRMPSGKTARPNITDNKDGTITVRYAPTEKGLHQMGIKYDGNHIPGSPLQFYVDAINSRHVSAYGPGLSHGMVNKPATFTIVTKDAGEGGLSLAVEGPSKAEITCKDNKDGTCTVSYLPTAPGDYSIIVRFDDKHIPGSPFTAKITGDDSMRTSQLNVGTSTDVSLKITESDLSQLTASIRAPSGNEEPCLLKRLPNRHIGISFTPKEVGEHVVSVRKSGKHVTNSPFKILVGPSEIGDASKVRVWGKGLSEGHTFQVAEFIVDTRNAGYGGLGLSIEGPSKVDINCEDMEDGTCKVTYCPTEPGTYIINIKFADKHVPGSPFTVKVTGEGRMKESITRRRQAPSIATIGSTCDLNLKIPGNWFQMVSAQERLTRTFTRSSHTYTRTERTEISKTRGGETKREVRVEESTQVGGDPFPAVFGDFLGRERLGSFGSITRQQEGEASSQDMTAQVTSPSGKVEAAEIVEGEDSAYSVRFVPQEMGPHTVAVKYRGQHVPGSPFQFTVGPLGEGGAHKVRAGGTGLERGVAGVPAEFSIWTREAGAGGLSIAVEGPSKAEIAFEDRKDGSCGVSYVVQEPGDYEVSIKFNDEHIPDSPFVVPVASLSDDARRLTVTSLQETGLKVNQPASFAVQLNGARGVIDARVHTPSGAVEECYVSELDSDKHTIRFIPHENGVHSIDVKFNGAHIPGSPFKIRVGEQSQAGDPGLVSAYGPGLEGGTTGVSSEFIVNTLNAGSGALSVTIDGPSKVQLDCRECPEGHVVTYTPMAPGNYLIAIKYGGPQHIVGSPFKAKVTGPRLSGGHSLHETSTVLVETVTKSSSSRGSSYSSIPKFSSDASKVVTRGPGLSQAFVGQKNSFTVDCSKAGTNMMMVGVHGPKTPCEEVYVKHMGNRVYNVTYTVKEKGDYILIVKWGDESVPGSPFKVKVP
UniProt Q0JRZ9, 263-285: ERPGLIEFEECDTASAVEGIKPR

This is one part of the list. The data scatter; read single values as rough.

Compound in this experiment: ClCC(=O)N[C@H]1CCCc2ccccc12
The experiment in a line: log2 mean competition ratio of IA-DTB cysteine labelling (DMSO/compound) (log2 ratio); higher = stronger cysteine engagement by compound. To be noted: 200 µM; treatment time: 4 h; cell line lysate: HEK293T. The protocol: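 IA-DTB competitive cysteine chemoproteomics in HEK293T RIPA lysate. Lysates were treated with compound 29 or 30 at 50 or 200 µM for 4 h, then IA-DTB (500 µM, 1 h), trypsin-digested, NeutrAvidin-enriched and analysed by diaPASEF. Competition ratio = intensity DMSO / intensity compound (n=4 treated, n=64 DMSO); binding: mean log2 CR ≥ 1 and p ≤ 0.05 plus QC filters. Target is the cysteine site.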
For the target FBXO5 C95 (UniProt Q9UKT4), the “log2 mean competition ratio” value was determined as 0.00134. The figure for FER C627 (UniProt P16591) is 0.052; for FHOD1 C373 (UniProt Q9Y613) it is -0.00971; for FBXL20 C205 (UniProt Q96IG2) it is 0.141.

With GAK C691 (UniProt O14976), the “log2 mean competition ratio” value is -0.132. The figure for GART C941 is 0.315; for FUBP1 C132 (UniProt Q96AE4) it is 0.14; for FASN C1759 it is -0.576. The figure for FXR2 C151 (UniProt P51116) is -0.0647; for GABPA C421 (UniProt Q06546) it is 0.157.

For the target FKBP15 C1031 (UniProt Q5T1M5), the “log2 mean competition ratio” value is -0.132. As for FBXL18 C166 (UniProt Q96ME1), the “log2 mean competition ratio” value worked out at 0.145.

Take FOXC1 C550: the “log2 mean competition ratio” value came to 0.302.

On to FAT1 C4512 (UniProt Q14517), for which the “log2 mean competition ratio” value worked out at 0.426. The same measure for GAPVD1 C293 (UniProt Q14C86): -0.239. The same measure for FBXL2 C88: 0.306; for GART C41: -0.0479. The same measure for FMNL3 C862 (UniProt Q8IVF7): 0.00798; for G6PD C294: -0.187; for FASTKD3 C378 (UniProt Q14CZ7): -0.165. FERMT2 C426 (UniProt Q96AC1): the “log2 mean competition ratio” value is -0.114. The same measure for FSCN1 C397 (UniProt Q16658): -0.0182; for FYCO1 C882 (UniProt Q9BQS8): -0.234. Consider FBXL15 C139 (UniProt Q9H469), for which the “log2 mean competition ratio” value came out at 0.409. The figure for FLNC C2679 (UniProt Q14315) is -0.0604. The same measure for GAB1 C405 (UniProt Q13480): -0.0754; for FASN C1141: 0.0445.

With FBXO7 C286 (UniProt Q9Y3I1), the “log2 mean competition ratio” value is 0.106.

As to FHOD1 C43 (UniProt Q9Y613), the “log2 mean competition ratio” value was -0.163. The same measure for FHOD1 C31 (UniProt Q9Y613): -0.14; for FNDC3B C218 (UniProt Q53EP0): 0.0149. The same measure for FER C344 (UniProt P16591): -0.174. The same measure for FCHSD2 C105 (UniProt O94868): 0.279; for GAK C145 (UniProt O14976): 0.167; for FBXL20 C116 (UniProt Q96IG2): 0.157. On to FCHO2 C273 (UniProt Q0JRZ9), for which the “log2 mean competition ratio” value is -0.162. The same measure for FLYWCH2 C132 (UniProt Q96CP2): -0.0616.
